Test results taken from paper PMC6737228.
No constants are given. Whether binding was seen depends on the method and setting. Binding can be weak; no strength is given. For some assays here: Where a sequence is shown, tags or fusion partners need not be part of it. For some assays here: Binding seen in cells or lysates may run through a third protein.

How the values were obtained:
[1] = molecular target: T1, Transforming growth factor-β membrane associated protein (TIMAP), endogenous (human (endogenous in primary human glomerular ECs)) (UniProt Q96T49); experiment: co-IP; endogenous TIMAP immunoprecipitated from glomerular EC lysates with chicken anti-TIMAP IgY (control: nonimmune IgY), goat anti-chicken IgG beads, 4 °C; lysis buffer 50 mM Tris-HCl pH 7.5, 150 mM NaCl, 1.0% Nonidet P-40, 0.5% sodium deoxycholate; Western blot
T1 sequence: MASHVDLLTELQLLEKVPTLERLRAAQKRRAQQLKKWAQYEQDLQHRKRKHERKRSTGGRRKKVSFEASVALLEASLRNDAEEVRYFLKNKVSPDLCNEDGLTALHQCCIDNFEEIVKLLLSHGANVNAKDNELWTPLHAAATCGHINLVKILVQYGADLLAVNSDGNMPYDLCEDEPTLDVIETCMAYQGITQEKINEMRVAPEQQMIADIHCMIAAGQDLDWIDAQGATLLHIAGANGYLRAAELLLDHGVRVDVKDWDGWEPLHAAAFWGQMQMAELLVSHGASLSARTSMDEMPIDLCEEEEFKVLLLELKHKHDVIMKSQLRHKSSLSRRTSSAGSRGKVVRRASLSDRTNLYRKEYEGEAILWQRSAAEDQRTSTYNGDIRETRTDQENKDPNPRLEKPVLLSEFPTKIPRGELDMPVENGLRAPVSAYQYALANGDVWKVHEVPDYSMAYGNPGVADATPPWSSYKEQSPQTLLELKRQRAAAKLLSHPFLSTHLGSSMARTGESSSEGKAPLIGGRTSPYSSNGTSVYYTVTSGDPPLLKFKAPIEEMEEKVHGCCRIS

[2] = molecular target: T2, GST-TIMAP, recombinant purified (UniProt Q96T49); experiment: pull-down; recombinant purified GST-TIMAP immobilised on GSH beads, incubated in vitro with recombinant purified His-MLC2 (also after incubation in kinase buffer with or without MLCK); anti-MLC2 and anti-pMLC2 Western blot; both purified
T2 sequence: T1 sequence

binding [1] | binding [2] | Substance
binds |  | myosin light chain 2 (MLC2), endogenous
 | binds | His-MLC2, recombinant purified
